The whole screen tested about 31,000 sequences, of which about 1,400 (4.5%) were called active.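 The calls were made as follows: active = median seed-adjusted z-score above 1 or below -1; inactive = the rest.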 The list shows a part of the results.

This experiment can be described thus: Novel Modifiers of Survival Motor Neuron (SMN) Protein: Gene Identification via Genome-wide siRNA Screen.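 Also: luminescence tracks full-length SMN protein made from the SMN2 reporter.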 The settings on record: HEK293T SMN2-luciferase reporter, siRNA knockdown, 72 h; actives lie on both sides. The method, boiled down: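 siRNA screen, 10418 genes ×3 siRNAs; 1 pmol/well, lipid reverse transfection into HEK293T SMN2-luc reporter line. 72 h, 37 °C, 5% CO2; ONE-Glo readout. Data: neg-ctrl normalized, log10, MAD; hit = MAD >1.0 or < -1.0.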
Consider GAAAAAUUGUGAGAUCGUATT against GLYATL1, for which the median seed-adjusted z-score was inactive: 0.0148.
The value for GGAUUGGAACCAGUACUCATT against HELZ was inactive: 0.0778; that for GAAAUAGACUAAGUCUUCUTT against RGS18 was inactive: -0.0369.
The value for UCACGGCUCUGUUGAAUGUTT against DUSP4 was inactive: -0.176.
To GGAUGGGAGCUACAGUUUUTT against SLC25A11 belongs inactive: -0.731; to ACUUCGAGGUGUCCCAUGATT against CPNE6, inactive: -0.528.
Regarding ACGUGGUGCUGAUGUGCUATT against RHOH, the median seed-adjusted z-score is inactive: 0.443.
To GGUACCAAGUCUACCAUUATT against PAN2 belongs inactive: -0.139; to GAAGGUUCAAGAUUAUCUATT against UGP2, inactive: 0.0766.
The value for GAACAUCGCUACCUAUGAATT against PRKAR2B was inactive: -0.777; that for GGAUGUGCUGUCGACAAGATT against INHBC was inactive: -0.66; that for GCACGCUAAUUCUAUGGUUTT against SCYE1 was inactive: 0.437.
As to CCAUCCAGGUGGUAAGGAATT against BANK1, the median seed-adjusted z-score was inactive: 0.962.
Consider GCUGAUUUGUGGGAUCUGUTT against TRIM13, for which the median seed-adjusted z-score was inactive: 0.712.
The value for GGAGUGUCUUGUGAAGUCATT against BCKDHB was inactive: 0.366.
Regarding GGUUUGUCCCUUCGCUAUATT against LRRTM3, the median seed-adjusted z-score was inactive: -0.0808.
To CCUGGAGUCUAGUCGUUUUTT against NDST2 belongs inactive: -0.0582; to CCAACACGGAGGUUGCAAATT against RIMS2, inactive: 0.534.
To UGACAUCUAUGAAGAGUAUTT against DNAI2 belongs inactive: 0.12; to GCGAUGCCUAUAAAACCUATT against TRYX3, active: 2.3.
On to GCAGAAUGGGAGUACUCAATT against ZNF397, for which the median seed-adjusted z-score is inactive: -0.107.
To CAUUCGCCUUCGAAACUGUTT against ABCB9 belongs inactive: 0.151; to CCUCGACAGUGAAUGCAAATT against ABCF3, inactive: 0.0759.
The value for AGAUCAAGCUCCUCAACAATT against KRT4 was inactive: 0.336; that for GUAGUGAAGUGUAUCCGGATT against ANXA6 was active: -1.01.
To CAAUAAAAUUUGCGAAGGATT against HOXB9 belongs inactive: 0.717; to CCCUAAGUCCAACUACUAATT against HBB, inactive: -0.151; to GCAUGUUGGUUCACUAUGATT against TPST1, inactive: -0.00547.
Regarding GCUUAUUAGCCUCCAAUUUTT against ZSCAN5A, the median seed-adjusted z-score was inactive: 0.31.
For GGCUGAUUUCUGUAACAUATT against SMG6, the median seed-adjusted z-score is inactive: -0.265.
As to GCAGCAUUCGUAAGAGUCATT against HNF4G, the median seed-adjusted z-score was inactive: 0.01.
The value for GGACGAUGCUGAUACGGUATT against NOP2 was active: 1.15.
The value for GAAGAGCCGUUUGAUCCUATT against GRIP1 was inactive: 0.337; that for GAACUGCUCAGGACUAUAATT against TBRG1 was active: -1.47.
The value for GGUCCACGUUUAUUGCCUUTT against SLC43A2 was inactive: -0.202; that for GCUCAUAUGUAGUACCUAUTT against DSC2 was inactive: -0.0641.
As for GGUCAACUCUUAGAUUACATT against ZFP1, the median seed-adjusted z-score is inactive: 0.0391.
With GCCUAAUUCCUAUUACCCATT against PTPRM, the median seed-adjusted z-score was inactive: 0.
To GAGCAGAUCCAGUACCACATT against CBS belongs inactive: -0.0696.
For the sequence GGCGACAGAUGUGAAAGAATT against LDLR, the median seed-adjusted z-score was inactive: -0.142.
The value for CAAAGAUCAUGAUAUUCCATT against JUB was inactive: -0.0898; that for UGGGUUAUGCUACCAAGUATT against HAS1 was inactive: -0.416; that for GAGGCGCACUUCAAGCAUATT against CENTA1 was inactive: -0.555.
The value for GAGACUUGGUUAUUAAGUATT against KPNA2 was inactive: 0.157; that for GAUGUUACCUGGAUAUAGATT against DDX1 was inactive: 0.507; that for CCAUGACAACAGUGGGUUATT against KCNA3 was inactive: 0.213.
To CUGACCGUCCUGUUUGAUATT against DMRTB1 belongs inactive: -0.393; to CCAUCCUGGUUGCUUCGAATT against GLB1L, inactive: -0.263; to GUCCUAAACUUCCUACGAATT against KCTD4, inactive: 0.649.
Consider GCUCAUUCAUAGGAUAUAATT against AKT3, for which the median seed-adjusted z-score was inactive: -0.0936.
To GAUUCCUCAUCAUUGGGUATT against ATP9A belongs inactive: 0.499; to GGAACCUGACGAAACAGAATT against PRKCG, inactive: 0.
Consider CGAGGAACUAAGACUCAAATT against GPR151, for which the median seed-adjusted z-score was inactive: -0.263.
To GCCUUCAGCUGUUACUAUUTT against ZNF823 belongs inactive: 0.143; to CAGUUCCUCGUGUACCAGATT against MAPK12, inactive: 0.0649.
The value for AUGUUUCAAUAGAUCCAGATT against LIMD2 was inactive: 0.418; that for GCAGGAGCCUUAAUUCCUUTT against KRT78 was inactive: 0.306.
For the sequence CACCGUCUGAGAUAAUAGATT against LST-3TM12, the median seed-adjusted z-score was inactive: -0.109.
As to CUCUGUUUCCGAAAGAAAATT against PLA2G4E, the median seed-adjusted z-score was inactive: 0.266.
The value for GGGUUCACCUCAGAGAGCATT against DPF3 was inactive: 0.242.
To CACGAUACCUCGUGCAGGATT against TIMM23 belongs inactive: 0.899.
Turning to CGCUUGACACUCACACUUUTT against HOXA9, the median seed-adjusted z-score was inactive: -0.304.
The value for GGCUCAUUGUGGUCUCUAATT against STAT2 was inactive: 0; that for CCAUGUCUCAGUUGGAGGATT against MAN1C1 was inactive: -0.548; that for GAGAAACCCGUCAACAUCATT against CRLF1 was inactive: -0.45.
The value for AGUGGAUUGAUAUUACAGATT against LOX was inactive: -0.175; that for GCAAAACACCAGAACGAGATT against TESSP2 was inactive: 0.419; that for CGAUCAAUGUUAGAAGUUATT against ACTR2 was inactive: 0.548.
To AUGGGAUCACAGUAAAUUATT against HRAS belongs inactive: -0.85.

Values taken from PubChem BioAssay AID1347426 (Functional Genomics Laboratory (NCATS/FGL), 2020).
